# Results deposited as PubChem BioAssay AID1159584 (Peter MacCallum Cancer Centre, 2016)
# Aim: 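Knock-downs that harm CDH1-null cells more than parental MCF10A cells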 (primary screen)
# System: human MCF10A breast epithelial cells, parental and CDH1-null
# Knock-down reagent: siRNA against human genes
# Measured: 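ATP luminescence (CellTiter-Glo) viability per line relative to mean mock wells over all plates, and the ratio of CDH1-null to parental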
# Reading the numbers: CDH1-null / parental viability ratio: higher = CDH1-null cells survive relatively better than parental; CDH1-null viability vs mock: higher = more viable CDH1-null cells; parental viability vs mock: higher = more viable parental cells
# Here is one part, drawn at random, of about 18,000 reagents tested. Reagent sequences are not shown. Not given: the amount of reagent, the time to read-out.
Gene,CDH1-null / parental viability ratio,CDH1-null viability vs mock (fraction of mock),parental viability vs mock (fraction of mock)
CT45A2 (GeneID 728911),0.9,0.45,0.5
PQBP1 (GeneID 10084),0.98,0.82,0.84
MROH9 (GeneID 80133),1.07,1.31,1.23
DNAI7 (GeneID 55259),1.22,0.22,0.18
AKR1C6P (GeneID 389932),0.98,0.84,0.86
APOM (GeneID 55937),0.45,0.34,0.75
SEMA3D (GeneID 223117),0.97,0.9,0.93
CPLANE1 (GeneID 65250),0.94,0.78,0.83
TP53AIP1 (GeneID 63970),0.65,0.31,0.48
SLC9A1 (GeneID 6548),1.17,0.84,0.72
NTN5 (GeneID 126147),1.3,1.16,0.89
TMPRSS13 (GeneID 84000),0.94,0.6,0.64
GPR101 (GeneID 83550),0.99,0.69,0.7
YAE1 (GeneID 57002),0.91,0.91,1
MTMR7 (GeneID 9108),1.59,0.92,0.58
LY96 (GeneID 23643),1.09,0.86,0.79
IFT70A (GeneID 92104),1,0.5,0.5
SCAMP4 (GeneID 113178),1.22,1.12,0.92
PFDN5 (GeneID 5204),0.83,0.76,0.92
KCNV2 (GeneID 169522),1.33,0.88,0.66
SERPINB12 (GeneID 89777),1,0.54,0.54
SMARCA5 (GeneID 8467),0.76,0.9,1.19
RBM17 (GeneID 84991),1.42,0.92,0.65
RNF216 (GeneID 54476),0.83,0.7,0.84
IL9 (GeneID 3578),0.85,0.78,0.92
KAT2A (GeneID 2648),0.84,0.77,0.92
BATF2 (GeneID 116071),1.07,0.78,0.73
CORO2A (GeneID 7464),1.04,0.76,0.73

2 successive entries already listed:
Gene,CDH1-null / parental viability ratio,CDH1-null viability vs mock (fraction of mock),parental viability vs mock (fraction of mock)
BATF2 (GeneID 116071),1.07,0.78,0.73
CORO2A (GeneID 7464),1.04,0.76,0.73
